Patent US11464879B2, “Cellular targeted active ingredient delivery system” (CELLIS SP. Z O.O. [LTD.], priority 2015, dated 2022)

Key:
[1] = test system: CD45+ leukocytes (macrophages, monocytes, lymphocytes, granulocytes); assay: uptake of iron binding protein by CD45+ leukocyte cells; assay type: cell-based; conditions: cells incubated 1-4 hrs in protein solution (ferritin 0.2 mg/ml; haemoglobin, transferrin 0.1 mg/ml), standard culture conditions
[2] = test system: cancer cells: mouse mammary cancer, colon cancer, canine mammary cancer, human breast, pancreatic, and bladder cancer; assay: transfer of carrier protein from loaded leukocytes to cancer cells; assay type: cell-based

Row | Substance | uptake of the protein by cells [1] | transport of carrier protein to cancer cells ([2]; from loaded granulocytes) | transport of carrier protein to cancer cells ([2]; from loaded lymphocytes) | transport of carrier protein to cancer cells ([2]; from loaded macrophages) | transport of carrier protein to cancer cells ([2]; from loaded monocytes)
1 | transferrins: human holo-transferrin (SEQ ID NO: 28) purified from serum of healthy donor | very easily uptake | very easily transport | very easily transport | very easily transport | very easily transport
2 | haemoglobins: human haemoglobin prepared from fresh red cells (SEQ ID NO: 18 or 22) | very easily uptake | very easily transport | very easily transport | very easily transport | very easily transport
